These results are taken from the supplement of paper PMC12823440, “Inhibitors supercharge kinase turnover through native proteolytic circuits” (Nature, 2025).

By UniProt entry, the sequences of proteins in these tests, tags left out. Where a name states a change or a piece, a line headed by the entry shows the natural chain unless it says otherwise.
UniProt Q15208: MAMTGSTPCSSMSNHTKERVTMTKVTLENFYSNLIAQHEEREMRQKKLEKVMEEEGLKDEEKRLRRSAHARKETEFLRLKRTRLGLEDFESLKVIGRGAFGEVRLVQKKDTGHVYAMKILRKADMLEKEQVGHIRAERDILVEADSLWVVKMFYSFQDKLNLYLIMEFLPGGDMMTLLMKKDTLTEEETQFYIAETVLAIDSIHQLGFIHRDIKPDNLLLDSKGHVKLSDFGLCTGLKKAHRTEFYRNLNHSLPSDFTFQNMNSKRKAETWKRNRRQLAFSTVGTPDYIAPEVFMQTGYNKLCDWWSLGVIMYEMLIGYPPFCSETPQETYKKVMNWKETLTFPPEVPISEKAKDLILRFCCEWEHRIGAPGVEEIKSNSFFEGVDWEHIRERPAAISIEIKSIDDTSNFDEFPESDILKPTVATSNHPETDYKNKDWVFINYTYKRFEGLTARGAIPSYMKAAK
UniProt P42680: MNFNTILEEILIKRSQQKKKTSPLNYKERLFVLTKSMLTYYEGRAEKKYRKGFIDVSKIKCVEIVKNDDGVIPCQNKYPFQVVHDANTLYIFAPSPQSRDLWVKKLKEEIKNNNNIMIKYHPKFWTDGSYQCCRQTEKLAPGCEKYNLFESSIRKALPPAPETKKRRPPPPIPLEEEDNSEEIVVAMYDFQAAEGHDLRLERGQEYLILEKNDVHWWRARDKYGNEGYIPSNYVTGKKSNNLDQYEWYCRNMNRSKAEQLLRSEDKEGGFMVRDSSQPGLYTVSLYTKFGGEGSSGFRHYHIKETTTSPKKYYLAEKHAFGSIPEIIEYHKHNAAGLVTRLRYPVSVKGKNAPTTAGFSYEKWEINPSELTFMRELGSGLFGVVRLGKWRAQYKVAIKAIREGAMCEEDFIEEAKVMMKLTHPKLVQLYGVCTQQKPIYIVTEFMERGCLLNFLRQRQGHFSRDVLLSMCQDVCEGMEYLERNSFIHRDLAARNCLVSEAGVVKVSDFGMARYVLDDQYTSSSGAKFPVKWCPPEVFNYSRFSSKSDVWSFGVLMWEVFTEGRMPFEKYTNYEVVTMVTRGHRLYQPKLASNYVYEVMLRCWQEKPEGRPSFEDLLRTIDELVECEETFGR
UniProt P29597: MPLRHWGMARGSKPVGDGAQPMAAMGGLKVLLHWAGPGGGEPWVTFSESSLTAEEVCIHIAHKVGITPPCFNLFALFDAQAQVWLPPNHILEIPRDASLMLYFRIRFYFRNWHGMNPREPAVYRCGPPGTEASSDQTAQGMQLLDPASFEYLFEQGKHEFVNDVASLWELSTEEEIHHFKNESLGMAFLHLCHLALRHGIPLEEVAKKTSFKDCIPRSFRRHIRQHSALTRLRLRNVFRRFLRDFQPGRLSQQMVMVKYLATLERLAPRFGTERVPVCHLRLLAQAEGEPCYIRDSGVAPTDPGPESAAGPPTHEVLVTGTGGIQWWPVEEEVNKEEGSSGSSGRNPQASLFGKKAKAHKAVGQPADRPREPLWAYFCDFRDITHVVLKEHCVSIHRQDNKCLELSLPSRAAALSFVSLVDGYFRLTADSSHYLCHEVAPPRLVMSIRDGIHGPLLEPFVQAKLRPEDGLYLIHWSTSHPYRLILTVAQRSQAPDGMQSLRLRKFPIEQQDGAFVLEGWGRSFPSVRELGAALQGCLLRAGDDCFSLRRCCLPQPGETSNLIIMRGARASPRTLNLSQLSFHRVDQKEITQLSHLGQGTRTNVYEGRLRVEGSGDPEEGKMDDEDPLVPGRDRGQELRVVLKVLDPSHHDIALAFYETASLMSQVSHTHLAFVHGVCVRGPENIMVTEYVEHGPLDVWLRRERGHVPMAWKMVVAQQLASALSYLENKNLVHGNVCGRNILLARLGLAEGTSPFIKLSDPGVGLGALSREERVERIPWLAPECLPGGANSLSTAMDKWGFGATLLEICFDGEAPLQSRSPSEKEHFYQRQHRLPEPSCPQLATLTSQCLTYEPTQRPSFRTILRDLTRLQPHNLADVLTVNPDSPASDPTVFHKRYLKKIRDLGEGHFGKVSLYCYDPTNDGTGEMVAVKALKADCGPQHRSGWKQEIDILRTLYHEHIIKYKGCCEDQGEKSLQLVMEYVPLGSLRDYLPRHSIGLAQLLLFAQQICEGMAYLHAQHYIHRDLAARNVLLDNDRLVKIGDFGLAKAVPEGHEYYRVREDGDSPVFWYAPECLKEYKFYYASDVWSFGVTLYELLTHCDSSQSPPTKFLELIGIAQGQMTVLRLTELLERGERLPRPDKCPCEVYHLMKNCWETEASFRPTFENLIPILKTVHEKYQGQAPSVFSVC
UniProt Q6PHR2: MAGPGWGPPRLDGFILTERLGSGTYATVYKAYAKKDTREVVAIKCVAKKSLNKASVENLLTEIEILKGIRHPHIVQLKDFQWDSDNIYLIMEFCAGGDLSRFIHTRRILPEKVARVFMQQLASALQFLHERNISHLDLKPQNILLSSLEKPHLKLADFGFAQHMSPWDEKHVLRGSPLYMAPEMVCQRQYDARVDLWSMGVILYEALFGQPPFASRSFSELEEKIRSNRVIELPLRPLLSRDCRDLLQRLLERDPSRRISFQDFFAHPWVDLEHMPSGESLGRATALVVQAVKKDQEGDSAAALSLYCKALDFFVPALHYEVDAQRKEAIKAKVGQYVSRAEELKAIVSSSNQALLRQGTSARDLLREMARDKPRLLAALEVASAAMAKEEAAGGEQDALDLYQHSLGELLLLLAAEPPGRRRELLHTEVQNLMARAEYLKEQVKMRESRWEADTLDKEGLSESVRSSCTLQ
UniProt P07947, whole entry, looked up: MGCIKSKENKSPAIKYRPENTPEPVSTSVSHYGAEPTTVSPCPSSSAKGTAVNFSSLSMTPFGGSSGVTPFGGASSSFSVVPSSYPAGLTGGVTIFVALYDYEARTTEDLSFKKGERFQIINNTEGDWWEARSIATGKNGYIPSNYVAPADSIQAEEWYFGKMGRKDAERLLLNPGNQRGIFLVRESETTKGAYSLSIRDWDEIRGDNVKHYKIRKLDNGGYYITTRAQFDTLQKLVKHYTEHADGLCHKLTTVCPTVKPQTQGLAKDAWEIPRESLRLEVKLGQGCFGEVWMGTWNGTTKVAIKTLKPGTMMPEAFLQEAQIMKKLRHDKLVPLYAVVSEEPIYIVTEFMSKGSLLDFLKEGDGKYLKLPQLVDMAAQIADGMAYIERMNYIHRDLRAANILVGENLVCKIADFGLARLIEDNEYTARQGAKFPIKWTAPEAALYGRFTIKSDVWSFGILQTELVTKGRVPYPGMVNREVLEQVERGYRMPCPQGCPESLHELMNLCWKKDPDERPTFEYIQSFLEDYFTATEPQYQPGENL
UniProt P43403: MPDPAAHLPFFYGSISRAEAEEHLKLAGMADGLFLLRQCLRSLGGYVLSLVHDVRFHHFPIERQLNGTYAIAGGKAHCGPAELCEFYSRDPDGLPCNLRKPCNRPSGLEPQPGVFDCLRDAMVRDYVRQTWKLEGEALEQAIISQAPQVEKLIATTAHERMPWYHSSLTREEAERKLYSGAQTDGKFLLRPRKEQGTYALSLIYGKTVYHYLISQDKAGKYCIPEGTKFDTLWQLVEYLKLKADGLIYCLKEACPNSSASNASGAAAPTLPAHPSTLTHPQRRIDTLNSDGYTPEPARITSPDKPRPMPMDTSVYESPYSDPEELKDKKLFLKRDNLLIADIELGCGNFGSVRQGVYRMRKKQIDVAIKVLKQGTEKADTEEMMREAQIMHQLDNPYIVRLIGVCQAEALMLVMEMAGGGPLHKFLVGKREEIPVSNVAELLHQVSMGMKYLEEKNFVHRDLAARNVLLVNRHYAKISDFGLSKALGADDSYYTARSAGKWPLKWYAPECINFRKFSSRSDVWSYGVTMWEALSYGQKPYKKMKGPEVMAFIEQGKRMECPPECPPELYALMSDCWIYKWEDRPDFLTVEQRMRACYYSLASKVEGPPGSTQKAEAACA
UniProt P00519, whole entry: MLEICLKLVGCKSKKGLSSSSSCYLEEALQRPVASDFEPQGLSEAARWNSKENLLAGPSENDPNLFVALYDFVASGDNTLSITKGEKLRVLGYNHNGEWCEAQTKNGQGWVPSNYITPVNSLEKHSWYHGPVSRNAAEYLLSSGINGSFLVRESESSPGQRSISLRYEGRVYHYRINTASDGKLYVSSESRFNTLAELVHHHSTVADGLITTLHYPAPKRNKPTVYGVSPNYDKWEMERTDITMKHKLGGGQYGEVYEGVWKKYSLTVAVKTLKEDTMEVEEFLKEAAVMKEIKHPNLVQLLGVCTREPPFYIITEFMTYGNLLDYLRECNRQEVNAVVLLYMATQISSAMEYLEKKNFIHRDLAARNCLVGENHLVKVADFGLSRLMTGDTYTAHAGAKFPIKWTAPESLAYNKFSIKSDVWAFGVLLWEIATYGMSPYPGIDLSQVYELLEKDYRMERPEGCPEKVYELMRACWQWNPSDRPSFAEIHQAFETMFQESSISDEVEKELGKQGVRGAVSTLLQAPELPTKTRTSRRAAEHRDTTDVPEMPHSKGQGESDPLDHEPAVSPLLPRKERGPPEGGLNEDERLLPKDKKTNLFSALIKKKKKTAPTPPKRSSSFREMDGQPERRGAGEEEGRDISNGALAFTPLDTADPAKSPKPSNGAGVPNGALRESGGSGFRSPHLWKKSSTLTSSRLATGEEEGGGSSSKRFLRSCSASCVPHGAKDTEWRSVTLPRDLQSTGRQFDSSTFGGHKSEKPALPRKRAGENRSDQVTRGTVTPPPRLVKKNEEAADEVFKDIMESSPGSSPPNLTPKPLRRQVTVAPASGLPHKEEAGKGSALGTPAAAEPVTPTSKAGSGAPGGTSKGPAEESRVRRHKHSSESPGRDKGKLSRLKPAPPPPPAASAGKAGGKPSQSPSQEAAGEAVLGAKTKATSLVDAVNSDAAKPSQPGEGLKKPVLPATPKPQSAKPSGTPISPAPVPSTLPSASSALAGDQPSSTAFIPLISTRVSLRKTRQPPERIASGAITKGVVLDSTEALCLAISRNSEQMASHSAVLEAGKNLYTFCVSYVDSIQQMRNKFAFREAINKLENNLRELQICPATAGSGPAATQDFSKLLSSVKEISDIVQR
UniProt P31749: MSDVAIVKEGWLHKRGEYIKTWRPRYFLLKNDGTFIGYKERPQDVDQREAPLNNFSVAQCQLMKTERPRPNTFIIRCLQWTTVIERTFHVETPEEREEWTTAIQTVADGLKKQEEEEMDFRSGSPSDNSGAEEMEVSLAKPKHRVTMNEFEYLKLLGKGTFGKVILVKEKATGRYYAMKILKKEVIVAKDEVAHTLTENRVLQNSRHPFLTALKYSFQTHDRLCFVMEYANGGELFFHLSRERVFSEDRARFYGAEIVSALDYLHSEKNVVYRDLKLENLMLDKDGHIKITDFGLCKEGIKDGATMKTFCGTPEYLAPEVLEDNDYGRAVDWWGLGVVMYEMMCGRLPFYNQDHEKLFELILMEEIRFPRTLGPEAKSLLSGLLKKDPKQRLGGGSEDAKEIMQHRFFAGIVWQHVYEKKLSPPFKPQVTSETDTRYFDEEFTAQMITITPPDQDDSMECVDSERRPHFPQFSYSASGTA

Structures are written as SMILES. Some of the results follow. Hit calls seldom repeat between salt and free forms of one compound.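 Kinases were expressed as nanoluciferase fusions in K562 cells and luminescence was read every 4 h between 2 and 18 h as percent of control, DMSO set to 100% and a positive control to 0%. A time point counts as decreased when the signal drops significantly (2 sigma). The hit call is the authors' own, does not follow from the count of time points alone, and its rule is not shown.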

What all share (details): K562; 2-18 h
For test [1], the target named is STK38 (UniProt Q15208). Description: kinase-Nluc reporter destabilization hit call (1 = scored as downregulated) (binary); higher = compound decreases kinase abundance.
Test [2] addresses SYK (UniProt P43405). The test is described as above.
The target of test [3] is TEC (UniProt P42680). Described as above.
Test [4] has as its target TYK2 (UniProt P29597). Described as above.
Test [5] addresses ULK3 (UniProt Q6PHR2). Described as above.
Test [6] concerns the target YES1 (UniProt P07947). The description is as above.
The target of test [7] is ZAK (UniProt Q9NYL2). The test is described as above.
Test [8] concerns the target ZAP70 (UniProt P43403). The test is described as above.
For test [9], the target named is ABL1 (UniProt P00519). In words: number of time points (of 5) at which kinase-Nluc abundance scored as decreased, DMSO-normalised (count); higher = more persistent destabilization.
For test [10], the target named is AKT1 (UniProt P31749). The description is as above.

Consider `CC[C@@H]1[C@H](F)C(=O)N[C@@H]1COc1nccc2cc(C(N)=O)c(OC)cc12` (10 µM), for which the “kinase-Nluc reporter destabilization hit call” value in test [1], in test [2], in test [3], in test [4], in test [5] and in test [6] was inactive: 0 throughout. For the same molecule, the “kinase-Nluc reporter destabilization hit call” value in [7] and in [8] was inactive: 0 throughout. For the same molecule, the “number of time points” value in test [9] and in [10] was 0 each time.

On to `COc1ccc2c(c1)c(C1=C(c3c[nH]c4ccccc34)C(=O)NC1=O)cn2CCCN(C)C` (10 µM), for which the “kinase-Nluc reporter destabilization hit call” value in test [1], in [2], in test [3], in test [4], in [5] and in test [6] was inactive: 0 in each case. Besides, the “kinase-Nluc reporter destabilization hit call” value in [7] and in [8] was inactive: 0 throughout. In addition, the “number of time points” value in test [9] and in [10] was 0 in each case.

In the case of `CC(C)(C)Cn1c(N)nc2ccc(-c3[nH]c(C(C)(C)C)nc3-c3ccc(F)cc3)nc21` [Ralimetinib dimesylate] (2.5 µM), the “kinase-Nluc reporter destabilization hit call” value in test [1], in [2], in test [3], in [4], in test [5] and in [6] was inactive: 0 in each case. Further, the “kinase-Nluc reporter destabilization hit call” value in test [7] and in [8] was inactive: 0 in each case. Further, the “number of time points” value in test [9] and in test [10] was 0 each time.

For `Nc1ncc(-c2ccc(C(=O)N3CCNCC3)cc2)nc1-c1ccc(C(F)(F)F)cc1` (10 µM), the “kinase-Nluc reporter destabilization hit call” value in test [1], in test [2], in [3], in [4], in test [5] and in [6] was inactive: 0 throughout. Also, the “kinase-Nluc reporter destabilization hit call” value in [7] and in test [8] was inactive: 0 each time. For the same molecule, the “number of time points” value in test [9] and in test [10] was 0 each time.

With `[O-][n+]1cccc(-c2nc3c(Cl)cccc3cc2[C@@H](Nc2ncnc3cccnc23)C(F)(F)F)c1` [Seletalisib] (10 µM), the “kinase-Nluc reporter destabilization hit call” value in test [1], in test [2], in test [3], in test [4], in [5] and in [6] was inactive: 0 throughout. Besides, the “kinase-Nluc reporter destabilization hit call” value in test [7] and in test [8] was inactive: 0 each time. Besides, the “number of time points” value in [9] and in [10] was 0 each time.

For `O=Nc1c(-c2c(O)[nH]c3ccccc23)[nH]c2ccccc12` [Indirubin-3'-monoxime] (2.5 µM), the “kinase-Nluc reporter destabilization hit call” value in test [1], in test [2], in test [3], in test [4], in test [5] and in [6] was inactive: 0 each time. Moreover, the “kinase-Nluc reporter destabilization hit call” value in test [7] and in test [8] was inactive: 0 throughout. The “number of time points” value in [9] and in test [10] was 0 in each case.

For `CC(C)(C)c1cc(C(c2cc3c(cc2O)OCO3)N2CCOCC2)cc(C(C)(C)C)c1O` (stereo not given) (2.5 µM), the “kinase-Nluc reporter destabilization hit call” value in test [1], in [2], in test [3], in test [4], in test [5] and in test [6] was inactive: 0 each time. In addition, the “kinase-Nluc reporter destabilization hit call” value in [7] and in test [8] was inactive: 0 each time. Moreover, the “number of time points” value in [9] and in test [10] was 0 in each case.

In the case of `CCCC(=O)Nc1nc2c(ncn2[C@@H]2O[C@@H]3COP(=O)(O)O[C@H]3[C@H]2OC(=O)CCC)c(=O)[nH]1` [Dibutyryl-cGMP (sodium)] (10 µM), the “kinase-Nluc reporter destabilization hit call” value in [1], in test [2], in test [3], in test [4], in [5] and in [6] was inactive: 0 each time. The “kinase-Nluc reporter destabilization hit call” value in test [7] and in test [8] was inactive: 0 in each case. In addition, the “number of time points” value in test [9] and in test [10] was 0 throughout.

Consider `N#C/C(=C\c1ccc2oc(=O)[nH]c2c1)C(=O)c1ccc(O)c(O)c1` (10 µM), for which the “kinase-Nluc reporter destabilization hit call” value in test [1], in test [2], in test [3], in [4], in test [5] and in [6] was inactive: 0 each time. For the same molecule, the “kinase-Nluc reporter destabilization hit call” value in test [7] and in test [8] was inactive: 0 throughout. Besides, the “number of time points” value in test [9] and in test [10] was 0 in each case.

For `COc1ccc2c(Oc3ccc(NC(=O)c4c(C)n(CC(C)(C)O)n(-c5ccccc5)c4=O)cc3F)ccnc2c1` (2.5 µM), the “kinase-Nluc reporter destabilization hit call” value in [1], in [2], in test [3], in test [4], in [5] and in [6] was inactive: 0 throughout. The “kinase-Nluc reporter destabilization hit call” value in [7] and in [8] was inactive: 0 in each case. For the same molecule, the “number of time points” value was 1 in [9] and 0 in test [10].

As for `COc1c(O)cc2oc3cc(O)c(CC=C(C)C)c(O)c3c(=O)c2c1CCC(C)(C)O` [Garcinone D] (2.5 µM), the “kinase-Nluc reporter destabilization hit call” value in [1], in [2], in [3], in test [4], in test [5] and in [6] was inactive: 0 throughout. In addition, the “kinase-Nluc reporter destabilization hit call” value in [7] and in [8] was inactive: 0 each time. In addition, the “number of time points” value in [9] and in test [10] was 0 throughout.

With `C=C[C@H]1[C@H](O[C@@H]2O[C@H](CO)[C@@H](O)[C@H](O)[C@H]2OC(=O)c2c(O)cc(O)cc2-c2cccc(O)c2)OC=C2C(=O)OCC[C@H]21` [Amarogentin] (10 µM), the “kinase-Nluc reporter destabilization hit call” value in test [1], in [2], in test [3], in [4], in test [5] and in test [6] was inactive: 0 each time. The “kinase-Nluc reporter destabilization hit call” value in [7] and in test [8] was inactive: 0 throughout. Further, the “number of time points” value in test [9] and in test [10] was 0 throughout.

`C[C@@H]1CCc2ncc(F)cc2[C@H]2CCCN2c2ccn3ncc(c3n2)C(=O)N1` [Selitrectinib] (10 µM): the “kinase-Nluc reporter destabilization hit call” value in [1], in [2], in [3], in test [4], in test [5] and in [6] was inactive: 0 throughout. In addition, the “kinase-Nluc reporter destabilization hit call” value in [7] and in test [8] was inactive: 0 throughout. The “number of time points” value in test [9] and in [10] was 0 each time.

Turning to `O=C(Nc1ccc(Cl)cc1)C1CCCN(C(=O)c2cccc(-c3ccco3)c2)C1` (stereo not given) (2.5 µM), the “kinase-Nluc reporter destabilization hit call” value in test [1], in test [2], in test [3], in [4], in test [5] and in [6] was inactive: 0 in each case. Besides, the “kinase-Nluc reporter destabilization hit call” value in test [7] and in [8] was inactive: 0 in each case. Further, the “number of time points” value in [9] and in [10] was 0 throughout.
